The target in this assay is Flag-CK2α (casein kinase 2 alpha), wild type (UniProt P68400). Briefly: co-IP; HEK293 cells transfected with both Myc-GRP94 and Flag-CK2α; immunoprecipitation with anti-Flag antibody; lysis buffer 50 mM Tris pH 7.5, 150 mM NaCl, 10% glycerol, 0.5% Nonidet P-40.

Protein sequences, listed by entry. Tags and fused reporters are not part of them. Residues count along the entry.
UniProt P68400: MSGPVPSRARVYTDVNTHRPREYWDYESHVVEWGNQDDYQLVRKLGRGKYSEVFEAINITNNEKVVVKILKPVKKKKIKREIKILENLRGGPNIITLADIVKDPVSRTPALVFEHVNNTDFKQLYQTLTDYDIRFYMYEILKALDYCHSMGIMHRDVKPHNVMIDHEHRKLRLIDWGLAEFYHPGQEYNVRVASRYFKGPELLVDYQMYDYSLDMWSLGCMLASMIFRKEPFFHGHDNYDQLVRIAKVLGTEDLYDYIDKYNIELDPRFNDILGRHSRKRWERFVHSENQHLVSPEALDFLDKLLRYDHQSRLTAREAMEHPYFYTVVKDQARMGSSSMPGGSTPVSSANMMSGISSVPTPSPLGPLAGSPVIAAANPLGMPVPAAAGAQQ
UniProt P14625, residues 22-803: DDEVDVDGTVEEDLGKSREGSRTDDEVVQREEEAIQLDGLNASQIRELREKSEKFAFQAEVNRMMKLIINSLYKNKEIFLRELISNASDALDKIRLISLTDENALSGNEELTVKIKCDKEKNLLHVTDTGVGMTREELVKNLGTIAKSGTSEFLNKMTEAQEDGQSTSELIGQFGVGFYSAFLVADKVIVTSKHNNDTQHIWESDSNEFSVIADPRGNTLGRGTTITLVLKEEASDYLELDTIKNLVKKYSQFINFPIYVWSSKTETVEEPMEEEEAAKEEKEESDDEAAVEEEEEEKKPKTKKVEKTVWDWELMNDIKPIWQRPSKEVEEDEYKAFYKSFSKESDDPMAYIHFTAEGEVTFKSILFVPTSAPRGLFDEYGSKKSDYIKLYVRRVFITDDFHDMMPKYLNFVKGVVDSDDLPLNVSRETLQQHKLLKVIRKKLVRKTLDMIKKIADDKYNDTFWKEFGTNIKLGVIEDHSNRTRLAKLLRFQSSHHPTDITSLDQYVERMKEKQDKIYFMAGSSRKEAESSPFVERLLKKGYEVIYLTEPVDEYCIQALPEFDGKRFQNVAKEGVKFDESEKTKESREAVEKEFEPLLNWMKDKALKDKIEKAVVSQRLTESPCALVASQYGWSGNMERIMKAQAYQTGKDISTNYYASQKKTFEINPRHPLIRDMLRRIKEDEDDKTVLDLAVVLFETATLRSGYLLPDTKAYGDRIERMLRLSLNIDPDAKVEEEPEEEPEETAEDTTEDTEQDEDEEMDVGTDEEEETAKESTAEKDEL

Results are given in words; binding and its absence hold for the method and conditions named. In cells and extracts the contact can be indirect. Some results given as binding are weak or reduced against the parent protein; the word gives no strength.

These results are taken from paper PMC11035675.

With “Myc-GRP94 (glucose-regulated protein 94), wild type (from UniProt P14625 22-803)”, the binding result is recorded as “binds”.
